## Primary screen of a compound library

T. brucei: 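Whole-parasite assay of Trypanosoma brucei over 72 hours; the read-out is not stated. Concentration: 30 µM. Direction is inferred from retests: higher values go with stronger inhibition. Values scatter widely below zero; nearly all retest evidence comes from the higher of the two concentrations used. About 64,000 compounds were tested under these conditions; 1.5% (about 940) showed 50% or more at least once.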
Toxoplasma: 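Assay of Toxoplasma gondii numbers, read through their beta-galactosidase reporter with a colour substrate. Tested at 10 µM. The record gives no direction; the compounds picked for IC50 retests had high values, so higher reads as fewer parasites. Of about 67,000 compounds tested this way, about 260 (0.38%) reached 50% or more in at least one test.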

Each number is a percent effect as filed.
How 0% and 100% were set is not recorded. Most values in the screen are low, and negative values occur.
The compounds are a random part of those screened.
A dash means the value is not listed here; it may have been measured.

structure	T. brucei	Toxoplasma
O=C(O)C(F)(F)F.[H][C@@]12CCN(c3ccc(C)nn3)[C@@]1([H])CCN2C(=O)Cc1ccccc1	-46.46	-1.667
COCCn1c2c(ccc1=O)CCN(C(=O)NC1CC1)CC2	-9.384	-11.63
O=C(O)C(F)(F)F.[H][C@@]12C[C@@H](Oc3ccc(C)cc3)CN1CCN(C(=O)c1cnccn1)C2	-47.39	6.209
[H][C@@]12COC[C@]1(C(=O)NC(C)C)CN(Cc1cnn(C)c1)C2	-37.66	16.64
CC[C@@]1(O)CCN(C(=O)CCNC(=O)c2ccc(F)cc2)C[C@H]1O	-	-59.66
CC(C)c1n[nH]c(C2CN(C(=O)c3ncoc3C(C)C)CCO2)n1 (stereo not given)	12.91	-15.07
Cc1nnc(C(C)NCC2(c3c(F)cccc3F)CCCC2)o1 (stereo not given)	-12.51	-2.193
COCC(=O)N(C)Cc1cccc(Cl)c1	11.53	-3.167
Cc1ccc(C(=O)N(C)Cc2ccc3c(c2)OCCO3)c(=O)[nH]1	-38.17	-0.4398
Cc1c(Cl)cccc1S(=O)(=O)NCc1cnc(N(C)C)n1C	-23.44	2.84
CS(=O)(=O)c1cccc2c1CCCN2C(=O)Cc1cccc(F)c1	-2.06	-5.03
O=C(CS(=O)(=O)CC1CCCCC1)NC1CCCCNC1=O (stereo not given)	27.49	0.847
O=C(CN1CCC(c2nnc(C(F)(F)F)o2)CC1)Nc1cccnc1	8.398	0.7581
O=C(O)C(F)(F)F.O=C(O)C(F)(F)F.[H][C@@]12CNCC[C@]1([H])OC[C@H](C(=O)Nc1cccnc1)C2	-7.735	6.231
CCC(CO)N(Cc1ccccn1)C(=O)c1ccc(F)c(F)c1 (stereo not given)	-9.954	-1.489
Cc1ccc(NC(C)(C)c2nnnn2-c2ccc(Cl)cc2)c(C)c1	-23.29	4.141
CCCC(C#N)NC(=O)COC1CCCCC1 (stereo not given)	-1.329	1.475
O=C(O)C(F)(F)F.[H][C@@]12COC[C@@H](C(=O)N3CCCCO3)[C@]1([H])CN(Cc1cc(C)c(C)o1)C2	-265.8	-17.42
[H][C@@]12COC[C@]1(COC)CN(C(=O)c1ccc(F)cc1C)C2	-58.74	-0.05319

Some entries from above, unchanged:

| structure | T. brucei | Toxoplasma |
|---|---|---|
| `O=C(O)C(F)(F)F.O=C(O)C(F)(F)F.[H][C@@]12CNCC[C@]1([H])OC[C@H](C(=O)Nc1cccnc1)C2` | -7.735 | 6.231 |
| `CCC(CO)N(Cc1ccccn1)C(=O)c1ccc(F)c(F)c1` (stereo not given) | -9.954 | -1.489 |

From ChEMBL document CHEMBL3988442, “University of Dundee, Small-Polar-MMV Screening Library” (2021).